Laboratory results published in article PMC9458440, “Cryo-EM structure of the Smc5/6 holo-complex” (Nucleic Acids Research, 2022).
Results are given in words; binding and its absence hold for the method and conditions named.

T1: Smc6 (Walker B mutant E1048Q), subunit of the S. cerevisiae Smc5/6 holo-complex (S. cerevisiae), Q12749
T1 chain: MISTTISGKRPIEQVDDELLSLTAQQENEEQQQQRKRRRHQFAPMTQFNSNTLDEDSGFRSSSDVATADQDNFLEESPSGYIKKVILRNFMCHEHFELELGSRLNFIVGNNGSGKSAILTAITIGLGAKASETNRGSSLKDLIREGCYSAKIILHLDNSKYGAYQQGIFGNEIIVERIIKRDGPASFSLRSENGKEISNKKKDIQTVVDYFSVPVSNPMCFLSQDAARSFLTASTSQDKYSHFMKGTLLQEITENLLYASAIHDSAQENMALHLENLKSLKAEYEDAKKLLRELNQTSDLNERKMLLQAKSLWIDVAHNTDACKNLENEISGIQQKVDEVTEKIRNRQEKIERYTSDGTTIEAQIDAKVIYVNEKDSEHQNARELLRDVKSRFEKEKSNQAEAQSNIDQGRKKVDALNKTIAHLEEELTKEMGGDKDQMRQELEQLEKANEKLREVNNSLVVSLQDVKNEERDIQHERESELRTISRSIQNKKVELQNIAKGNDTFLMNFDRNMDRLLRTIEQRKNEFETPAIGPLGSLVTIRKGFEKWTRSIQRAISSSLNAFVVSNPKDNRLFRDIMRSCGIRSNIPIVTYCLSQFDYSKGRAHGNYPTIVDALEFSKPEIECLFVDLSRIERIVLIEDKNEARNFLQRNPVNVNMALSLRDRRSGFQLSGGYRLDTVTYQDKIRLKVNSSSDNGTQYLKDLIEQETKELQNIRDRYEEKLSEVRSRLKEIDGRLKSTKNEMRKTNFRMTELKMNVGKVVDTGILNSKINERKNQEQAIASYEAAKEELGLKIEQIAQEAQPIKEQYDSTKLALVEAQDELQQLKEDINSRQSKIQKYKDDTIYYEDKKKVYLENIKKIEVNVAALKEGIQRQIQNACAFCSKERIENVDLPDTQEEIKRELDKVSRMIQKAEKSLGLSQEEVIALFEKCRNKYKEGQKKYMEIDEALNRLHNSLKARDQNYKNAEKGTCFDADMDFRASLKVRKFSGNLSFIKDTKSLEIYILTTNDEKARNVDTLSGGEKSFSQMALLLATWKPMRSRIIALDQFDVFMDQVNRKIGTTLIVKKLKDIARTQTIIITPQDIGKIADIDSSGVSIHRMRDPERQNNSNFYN


Molecular target: T1, Smc6 (Walker B mutant E1048Q), subunit …
Assay: cryo-EM structure; BS3-crosslinked six-subunit holo-complex, apo / non-liganded; fractions from Superose 6 diluted to 20 mM HEPES.NaOH pH 7.5, 50 mM NaCl, 0.5 mM TCEP, 0.1 mg/ml; maps at 10.8 Å (holo-complex), 8.53 Å (hinge/arm) and 6.5 Å (head-only); pseudo-atomic model built from homology and AlphaFold models; both purified
Conditions: remark: other sources report otherwise

binding	Binder
no binding	Nse1, subunit of the S. cerevisiae Smc5/6 holo-complex (natural protein, Nse1, Saccharomyces cerevisiae; the model holds amino acids 11-336; also called KITE subunit; source: recombinant, expressed in insect cells, purified as holo-complex (Superose 6 SEC), BS3-crosslinked) MEVHEEQVSAPVTGDATAKYLLQYILSARGICHENALILALMRLETDASTLNTEWSIQQWVDKLNDYINAINVKLNLLGYKIIRINHGIGRNAVTLKAKQNFESFEDNTAIRAHNNDYAVLQSIVLPESNRFFVYVNLASTEETKLATRFNQNEIEFMKWAIEQFMISGETIVEGPALETSIIVKEVNRILVAATGDSNLAKWRKFSTFTVGSTNLFQFQELTATDIEDLLLRLCELKWFYRTQEGKFGIDLRCIAELEEYLTSMYNLNTCQNCHKLAIQGVRCGNESCREENEETGENSLSQIWHVDCFKHYITHVSKNCDRCGSSLITEGVYVI
no binding	Nse3, subunit of the S. cerevisiae Smc5/6 holo-complex (natural protein, Nse3, Saccharomyces cerevisiae; the model holds amino acids 9-99, 114-152, 173-303; also called KITE subunit; source: recombinant, expressed in insect cells, purified as holo-complex (Superose 6 SEC), BS3-crosslinked) MSSIDNDSDVDLTEDLAVAKIVKENPVARKMVRYILSRGESQNSIITRNKLQSVIHEAAREENIAKPSFSKMFMDINAILYNVYGFELQGLPSKNNMNAGGNGSNSNTNKSMPEPLGHRAQKFILLNNVPHSKNFDDFKILQSAHTYEELIVTGEYIGDDIASGTSNTLESKLSTDRDLVYKGVLSVILCIVFFSKNNILHQELIKFLETFGIPSDGSKIAILNITIEDLIKSLEKREYIVRLEEKSDTDGEVISYRIGRRTQAELGLESLEKLVQEIMGLEKEQTKSLHDDIIKSIGDSYSI
